Results reported in the supplement of paper PMC10849652.
The list shows a part of the results.

Sequences of proteins named here, by UniProt entry; tags and fusion partners are left off. A change or cut given only in a name is not applied to a line headed by its entry.
UniProt Q9Y5V3: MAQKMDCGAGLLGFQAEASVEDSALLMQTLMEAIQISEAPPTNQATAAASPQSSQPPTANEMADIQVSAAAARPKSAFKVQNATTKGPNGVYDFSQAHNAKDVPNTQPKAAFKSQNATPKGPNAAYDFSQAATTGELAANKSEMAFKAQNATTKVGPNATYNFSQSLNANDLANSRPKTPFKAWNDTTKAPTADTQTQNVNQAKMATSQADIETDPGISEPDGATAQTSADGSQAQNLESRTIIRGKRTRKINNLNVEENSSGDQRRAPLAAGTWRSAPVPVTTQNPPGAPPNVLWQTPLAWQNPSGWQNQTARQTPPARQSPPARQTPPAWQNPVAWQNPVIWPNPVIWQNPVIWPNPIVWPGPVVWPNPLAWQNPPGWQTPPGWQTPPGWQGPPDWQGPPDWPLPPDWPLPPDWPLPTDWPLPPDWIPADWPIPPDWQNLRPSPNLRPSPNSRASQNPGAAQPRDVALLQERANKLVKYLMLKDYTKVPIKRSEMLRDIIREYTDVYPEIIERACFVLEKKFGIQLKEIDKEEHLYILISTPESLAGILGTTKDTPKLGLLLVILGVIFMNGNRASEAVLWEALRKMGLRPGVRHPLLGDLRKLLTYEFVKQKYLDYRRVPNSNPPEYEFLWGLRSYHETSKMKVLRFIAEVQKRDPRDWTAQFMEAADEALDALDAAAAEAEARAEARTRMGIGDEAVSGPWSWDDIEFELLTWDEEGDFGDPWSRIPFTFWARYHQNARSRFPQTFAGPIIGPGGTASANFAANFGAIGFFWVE
UniProt P36941: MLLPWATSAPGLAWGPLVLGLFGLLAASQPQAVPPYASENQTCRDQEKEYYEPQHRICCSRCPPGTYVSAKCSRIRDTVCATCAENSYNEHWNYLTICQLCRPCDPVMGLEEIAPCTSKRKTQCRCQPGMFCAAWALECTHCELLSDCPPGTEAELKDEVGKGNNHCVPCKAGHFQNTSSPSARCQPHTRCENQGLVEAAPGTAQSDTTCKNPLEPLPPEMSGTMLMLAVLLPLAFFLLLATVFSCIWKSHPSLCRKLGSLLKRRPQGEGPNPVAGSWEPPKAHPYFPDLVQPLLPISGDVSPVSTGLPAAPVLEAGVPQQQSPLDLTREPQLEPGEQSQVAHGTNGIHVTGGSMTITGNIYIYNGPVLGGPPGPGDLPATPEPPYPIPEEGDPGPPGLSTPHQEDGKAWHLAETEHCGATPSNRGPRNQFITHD
UniProt Q9UK45: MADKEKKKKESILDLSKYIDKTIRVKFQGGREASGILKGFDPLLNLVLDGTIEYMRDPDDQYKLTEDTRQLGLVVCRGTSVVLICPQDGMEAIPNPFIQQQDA
UniProt Q9ULX9: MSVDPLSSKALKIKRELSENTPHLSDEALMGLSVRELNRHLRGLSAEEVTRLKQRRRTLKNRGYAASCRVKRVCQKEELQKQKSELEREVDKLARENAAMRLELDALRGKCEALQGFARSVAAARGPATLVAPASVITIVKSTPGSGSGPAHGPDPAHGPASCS
UniProt Q12851: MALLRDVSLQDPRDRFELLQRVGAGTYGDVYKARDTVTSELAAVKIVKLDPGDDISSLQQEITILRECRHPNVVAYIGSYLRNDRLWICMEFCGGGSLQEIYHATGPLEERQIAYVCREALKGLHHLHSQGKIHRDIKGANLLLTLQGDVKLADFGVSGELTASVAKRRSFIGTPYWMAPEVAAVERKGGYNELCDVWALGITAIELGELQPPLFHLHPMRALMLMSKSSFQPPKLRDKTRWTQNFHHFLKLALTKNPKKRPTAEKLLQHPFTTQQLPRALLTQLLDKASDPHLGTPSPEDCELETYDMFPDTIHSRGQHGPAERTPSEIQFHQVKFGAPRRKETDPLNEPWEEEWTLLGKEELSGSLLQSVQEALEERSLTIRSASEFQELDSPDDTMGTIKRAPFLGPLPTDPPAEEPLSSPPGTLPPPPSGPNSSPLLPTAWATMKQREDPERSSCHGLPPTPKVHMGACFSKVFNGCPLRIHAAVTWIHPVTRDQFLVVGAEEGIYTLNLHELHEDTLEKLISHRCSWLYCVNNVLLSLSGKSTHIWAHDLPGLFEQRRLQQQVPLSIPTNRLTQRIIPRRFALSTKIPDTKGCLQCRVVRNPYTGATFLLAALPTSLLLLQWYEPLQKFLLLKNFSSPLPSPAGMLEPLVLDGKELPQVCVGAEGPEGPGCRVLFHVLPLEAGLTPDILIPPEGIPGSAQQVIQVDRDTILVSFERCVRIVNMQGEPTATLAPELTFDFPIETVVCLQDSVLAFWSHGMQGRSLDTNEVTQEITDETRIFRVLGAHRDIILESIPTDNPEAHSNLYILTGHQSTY
UniProt Q9UPY8, whole entry, looked up: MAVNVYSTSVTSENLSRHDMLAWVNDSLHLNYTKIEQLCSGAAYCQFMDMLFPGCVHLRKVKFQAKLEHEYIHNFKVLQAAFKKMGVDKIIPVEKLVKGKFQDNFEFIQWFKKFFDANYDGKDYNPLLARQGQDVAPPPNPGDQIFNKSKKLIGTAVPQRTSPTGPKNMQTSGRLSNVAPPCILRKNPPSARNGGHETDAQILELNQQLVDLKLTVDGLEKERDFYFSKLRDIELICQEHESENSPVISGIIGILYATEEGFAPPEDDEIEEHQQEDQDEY
UniProt O43325: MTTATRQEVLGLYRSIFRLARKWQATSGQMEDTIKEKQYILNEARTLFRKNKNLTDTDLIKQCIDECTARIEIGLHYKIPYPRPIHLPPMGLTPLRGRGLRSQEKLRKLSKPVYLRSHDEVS
UniProt Q99759: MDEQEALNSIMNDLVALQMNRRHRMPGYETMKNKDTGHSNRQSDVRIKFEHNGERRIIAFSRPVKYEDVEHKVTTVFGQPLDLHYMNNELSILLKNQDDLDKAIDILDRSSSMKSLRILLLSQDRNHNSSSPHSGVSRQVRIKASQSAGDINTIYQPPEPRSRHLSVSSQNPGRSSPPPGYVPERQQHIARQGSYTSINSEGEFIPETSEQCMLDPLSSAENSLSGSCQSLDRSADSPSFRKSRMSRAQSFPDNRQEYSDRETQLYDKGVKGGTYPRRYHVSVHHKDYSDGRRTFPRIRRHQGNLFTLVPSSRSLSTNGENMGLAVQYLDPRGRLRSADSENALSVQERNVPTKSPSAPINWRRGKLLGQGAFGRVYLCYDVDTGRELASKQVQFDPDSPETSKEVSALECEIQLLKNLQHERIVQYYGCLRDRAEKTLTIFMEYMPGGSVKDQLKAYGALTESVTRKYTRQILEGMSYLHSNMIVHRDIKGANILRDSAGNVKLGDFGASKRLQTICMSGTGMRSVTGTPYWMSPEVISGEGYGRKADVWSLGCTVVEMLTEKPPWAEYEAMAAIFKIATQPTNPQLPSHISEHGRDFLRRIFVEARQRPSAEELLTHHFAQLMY
UniProt Q86X29: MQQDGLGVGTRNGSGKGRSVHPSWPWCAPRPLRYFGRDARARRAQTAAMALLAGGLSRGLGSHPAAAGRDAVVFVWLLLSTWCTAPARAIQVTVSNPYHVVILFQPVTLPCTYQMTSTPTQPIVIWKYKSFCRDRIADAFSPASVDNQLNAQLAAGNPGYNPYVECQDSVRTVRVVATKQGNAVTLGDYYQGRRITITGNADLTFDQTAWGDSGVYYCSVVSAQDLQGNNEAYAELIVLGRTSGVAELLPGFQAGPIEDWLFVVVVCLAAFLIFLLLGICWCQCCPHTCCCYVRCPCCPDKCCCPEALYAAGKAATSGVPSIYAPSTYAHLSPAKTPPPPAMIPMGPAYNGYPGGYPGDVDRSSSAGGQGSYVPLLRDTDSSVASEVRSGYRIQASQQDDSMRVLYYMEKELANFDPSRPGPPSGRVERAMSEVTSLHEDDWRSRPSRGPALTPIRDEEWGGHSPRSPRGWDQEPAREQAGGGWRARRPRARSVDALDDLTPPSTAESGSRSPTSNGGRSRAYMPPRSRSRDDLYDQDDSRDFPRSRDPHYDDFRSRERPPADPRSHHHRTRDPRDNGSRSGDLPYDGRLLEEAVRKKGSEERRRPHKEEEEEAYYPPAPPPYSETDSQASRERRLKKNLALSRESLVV
UniProt Q6P9F7: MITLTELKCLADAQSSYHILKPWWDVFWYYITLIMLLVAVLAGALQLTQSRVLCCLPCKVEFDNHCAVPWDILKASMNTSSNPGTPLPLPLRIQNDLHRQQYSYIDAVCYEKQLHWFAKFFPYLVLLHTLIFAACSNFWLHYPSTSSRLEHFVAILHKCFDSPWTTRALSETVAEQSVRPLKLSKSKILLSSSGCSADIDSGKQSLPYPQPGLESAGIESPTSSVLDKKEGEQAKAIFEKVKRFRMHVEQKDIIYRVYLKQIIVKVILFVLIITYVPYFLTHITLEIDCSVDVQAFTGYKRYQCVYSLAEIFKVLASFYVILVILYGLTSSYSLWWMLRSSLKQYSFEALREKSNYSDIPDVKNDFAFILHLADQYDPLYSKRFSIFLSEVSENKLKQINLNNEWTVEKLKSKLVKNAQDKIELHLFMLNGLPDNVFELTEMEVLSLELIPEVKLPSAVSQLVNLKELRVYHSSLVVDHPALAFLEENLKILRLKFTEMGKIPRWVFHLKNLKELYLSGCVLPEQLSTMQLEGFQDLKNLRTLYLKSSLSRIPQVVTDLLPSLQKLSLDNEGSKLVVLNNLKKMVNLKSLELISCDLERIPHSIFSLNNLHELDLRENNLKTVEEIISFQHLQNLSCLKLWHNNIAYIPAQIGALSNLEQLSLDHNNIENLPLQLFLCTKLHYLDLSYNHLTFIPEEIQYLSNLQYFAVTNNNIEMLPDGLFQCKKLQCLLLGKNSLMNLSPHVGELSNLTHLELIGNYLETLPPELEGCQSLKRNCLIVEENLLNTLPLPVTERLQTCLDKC
UniProt Q8IVH8: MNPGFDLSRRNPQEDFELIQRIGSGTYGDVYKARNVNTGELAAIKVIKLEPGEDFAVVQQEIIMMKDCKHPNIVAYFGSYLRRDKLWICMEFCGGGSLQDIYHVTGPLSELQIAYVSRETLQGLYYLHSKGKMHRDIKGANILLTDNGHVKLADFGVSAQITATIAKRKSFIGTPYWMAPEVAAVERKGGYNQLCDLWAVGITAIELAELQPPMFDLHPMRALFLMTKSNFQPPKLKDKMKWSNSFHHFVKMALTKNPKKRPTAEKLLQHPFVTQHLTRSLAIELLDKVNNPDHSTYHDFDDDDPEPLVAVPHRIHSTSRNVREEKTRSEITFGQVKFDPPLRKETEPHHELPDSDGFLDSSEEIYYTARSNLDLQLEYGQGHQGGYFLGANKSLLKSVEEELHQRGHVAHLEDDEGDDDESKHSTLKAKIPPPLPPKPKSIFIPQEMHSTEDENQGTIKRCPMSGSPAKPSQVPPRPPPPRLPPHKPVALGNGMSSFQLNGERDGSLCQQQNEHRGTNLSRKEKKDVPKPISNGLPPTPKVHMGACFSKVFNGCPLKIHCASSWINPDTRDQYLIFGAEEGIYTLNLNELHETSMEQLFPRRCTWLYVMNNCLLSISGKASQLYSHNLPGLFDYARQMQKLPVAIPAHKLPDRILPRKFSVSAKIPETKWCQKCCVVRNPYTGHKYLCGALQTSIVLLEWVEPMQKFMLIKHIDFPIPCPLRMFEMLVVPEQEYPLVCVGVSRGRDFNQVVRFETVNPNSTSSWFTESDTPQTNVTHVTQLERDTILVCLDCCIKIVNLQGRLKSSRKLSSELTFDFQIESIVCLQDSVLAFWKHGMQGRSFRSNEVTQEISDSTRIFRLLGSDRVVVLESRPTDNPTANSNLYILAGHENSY
UniProt O15525: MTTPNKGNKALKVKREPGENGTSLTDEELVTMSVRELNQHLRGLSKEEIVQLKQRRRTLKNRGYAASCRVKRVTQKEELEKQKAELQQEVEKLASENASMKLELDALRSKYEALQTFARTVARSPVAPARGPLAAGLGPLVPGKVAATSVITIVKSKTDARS
UniProt Q86UD3: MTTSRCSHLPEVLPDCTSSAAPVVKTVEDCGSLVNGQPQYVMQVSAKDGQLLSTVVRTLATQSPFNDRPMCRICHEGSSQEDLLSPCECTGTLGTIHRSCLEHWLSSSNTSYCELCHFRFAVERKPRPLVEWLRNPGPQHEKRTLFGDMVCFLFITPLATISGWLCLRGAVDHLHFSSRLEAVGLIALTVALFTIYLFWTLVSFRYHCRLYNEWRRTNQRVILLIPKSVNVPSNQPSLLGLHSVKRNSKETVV
UniProt Q96LZ2: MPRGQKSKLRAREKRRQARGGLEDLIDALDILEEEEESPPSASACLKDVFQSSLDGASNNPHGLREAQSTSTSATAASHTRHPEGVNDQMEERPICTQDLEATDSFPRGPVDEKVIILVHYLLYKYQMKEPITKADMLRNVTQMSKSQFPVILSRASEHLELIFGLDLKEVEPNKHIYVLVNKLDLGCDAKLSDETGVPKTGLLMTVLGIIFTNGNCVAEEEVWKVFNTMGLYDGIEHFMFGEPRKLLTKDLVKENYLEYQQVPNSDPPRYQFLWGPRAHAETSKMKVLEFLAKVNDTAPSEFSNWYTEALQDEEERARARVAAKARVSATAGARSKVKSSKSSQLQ
UniProt Q9Y4Y9: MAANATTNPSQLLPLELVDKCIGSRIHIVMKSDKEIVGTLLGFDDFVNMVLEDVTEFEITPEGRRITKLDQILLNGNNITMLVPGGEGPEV

Experiments:
Assay in all cases: log2 fold change, soluble protein after heating vs DMSO (PISA); higher = thermal stabilisation; K562 cells, 10 uM, 30 min; active = over 0.2 and 3.5 SD of the protein, either way, in both replicates (recomputed)
[1] = compound: NC(=O)Nc1cc(-c2cccc(F)c2)sc1C(=O)N[C@H]1CCCNC1
Method in brief: (§1)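 Aliquots of K562 cells (2×10^6 cells/mL) treated with 10 μM compound for 30 min were heated for 3 min over 48°C-58°C. After pooling and extraction in PBS with 0.5% NP-40 at 4°C, soluble protein from a 21,000xg, 90 min spin was quantified by TMTpro 16plex LC-MS/MS with channel sums equalised. Thermal stability is expressed against control samples, from duplicates, as a log2 fold change.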

[2] = compound: NC(=O)c1cnc(N[C@@H]2CCCC[C@@H]2N)nc1Nc1cccc(-n2nccn2)c1
Method in brief: as §1

[3] = compound: NC1(c2ccc(-c3nc4ccn5c(=O)[nH]nc5c4cc3-c3ccccc3)cc2)CCC1
Method in brief: as §1

[4] = compound: NCC(=O)Nc1ccc(-n2nc(C(F)(F)F)cc2-c2ccc3c(ccc4ccccc43)c2)cc1
Method in brief: as §1

entinostat = compound: Nc1ccccc1NC(=O)c1ccc(CNC(=O)OCc2cccnc2)cc1 [entinostat]
Method in brief: as §1

vorinostat = compound: O=C(CCCCCCC(=O)Nc1ccccc1)NO [vorinostat]
Method in brief: as §1

citarinostat = compound: O=C(CCCCCCNC(=O)c1cnc(N(c2ccccc2)c2ccccc2Cl)nc1)NO [citarinostat]
Method in brief: as §1

silmitasertib = compound: O=C(O)c1ccc2c(c1)nc(Nc1cccc(Cl)c1)c1ccncc12 [silmitasertib]
Method in brief: as §1

[5] = compound: O=C1NC(=O)C(c2cnc3ccccn23)=C1c1cn2c3c(cc(F)cc13)CN(C(=O)N1CCCCC1)CC2
Method in brief: as §1

[6] = compound: c1cc(OCCN2CCCCC2)cc(-c2n[nH]c3ccc(-c4nnc[nH]4)cc23)c1
Method in brief: as §1

entospletinib = compound: c1cn2cc(-c3ccc4cn[nH]c4c3)nc(Nc3ccc(N4CCOCC4)cc3)c2n1 [entospletinib]
Method in brief: as §1

Measured: log2 fold change

MAP1A isoform 2 (UniProt P78559)
inactive: [1] 0.023 | [2] -0.017 | [3] -0.006 | [4] 0.074 | entinostat -0.036 | vorinostat -0.018 | citarinostat -0.02 | silmitasertib 0.017 | [5] 0.033 | [6] -0.05 | entospletinib 0.052

MAGI3 isoform 1 (UniProt Q5TCQ9)
inactive: [1] -0.04 | [2] -0.219 | [3] -0.154 | [4] -0.024 | entinostat -0.065 | citarinostat 0 | silmitasertib -0.178 | [5] 0 | [6] -0.026 | entospletinib -0.086

MAGED1 isoform 2 (UniProt Q9Y5V3)
inactive: [1] 0.098 | [2] -0.029 | [4] -0.258 | entinostat 0 | [5] 0.262

LYSMD3 (UniProt Q7Z3D4)
inactive: [1] 0.151 | [2] 0.224 | [3] 0.008 | [4] -0.119 | entinostat 0.003 | vorinostat 0.08 | citarinostat -0.007 | silmitasertib 0.012 | [5] -0.051 | [6] 0.038 | entospletinib 0.055

LTBR (UniProt P36941)
inactive: [1] 0.018 | [2] -0.016 | [4] -0.038 | entinostat -0.006 | vorinostat -0.235 | citarinostat -0.313 | [5] -0.183 | [6] -0.059 | entospletinib 0.454

MAD2L1BP isoform 3 (UniProt Q15013)
inactive: [1] 0.005 | [2] 0.021 | [3] -0.047 | [4] 0.001 | entinostat -0.006 | citarinostat 0.056 | silmitasertib -0.054 | [5] -0.032 | [6] -0.04 | entospletinib -0.007

LSM7 (UniProt Q9UK45)
inactive: [1] -0.007 | [2] -0.008 | [3] -0.002 | [4] -0.012 | entinostat -0.016 | vorinostat -0.067 | citarinostat 0.051 | silmitasertib 0.035 | [5] -0.014 | [6] -0.011 | entospletinib -0.046

MAP4 isoform 5 (UniProt P27816)
inactive: [1] 0.135 | [2] 0.087 | [3] 0.109 | entinostat 0.075 | citarinostat -0.121 | silmitasertib 0.012 | [6] 0.074
active: [5] 0.423

MAFF (UniProt Q9ULX9)
inactive: [1] -0.042 | [2] -0.06 | [3] 0.112 | [4] 0.096 | entinostat -0.091 | vorinostat -0.273 | citarinostat 0 | silmitasertib -0.118 | [6] 0.153 | entospletinib 0.094

MAP2K5 (UniProt Q13163)
inactive: [2] -0.025

MAML1 (UniProt Q92585)
inactive: [1] 0.08 | [4] 0.088 | entinostat -0.104 | [5] 0.025

MAD1L1 (UniProt Q9Y6D9)
inactive: [2] -0.073 | [3] 0.025 | [4] -0.087 | vorinostat 0.187 | silmitasertib -0.127 | [5] -0.233

LTBP1 isoform 4 (UniProt Q14766)
inactive: [2] 0.016 | [4] 0.001 | vorinostat 0.066 | [5] 0.113

LSR (UniProt M0QZL9)
inactive: [1] -0.508 | [4] -0.095 | entinostat -0.406 | [5] -0.074

LYPLA1, A0A087X1K9
inactive: [3] -0.312 | silmitasertib 0.085

LRRCC1 (UniProt Q9C099)
inactive: [2] -0.041

MAPKAP1 (UniProt Q9BPZ7)
inactive: vorinostat 0.212 | [5] 0.129

MAP4K2 (UniProt Q12851)
active: [1] 0.827
inactive: entinostat 0.145 | citarinostat 0.116 | [6] -0.22

MAPRE3 isoform 2 (UniProt Q9UPY8)
inactive: [2] -0.033

MAPK7 (UniProt Q13164)
inactive: [2] -0.25 | vorinostat -0.069 | [5] 0

MAP4K4 isoform 6 (UniProt O95819)
inactive: [1] 0.332 | [3] 0.009 | [4] 0.228 | entinostat 0.237 | citarinostat 0.114 | silmitasertib -0.202 | [6] 0.143

LRRC8E (UniProt Q6NSJ5)
inactive: [1] -0.001 | [3] -0.227 | [4] 0.067 | entinostat -0.391 | vorinostat 0.054 | silmitasertib -0.078 | [5] -0.044

LSM14A, A0A140TA76
inactive: [2] 0.236 | [3] 0.025 | [4] 0.069 | silmitasertib -0.094

LYRM1 (UniProt O43325)
inactive: [1] -0.036 | [3] -0.035 | [4] -0.075 | entinostat -0.029 | vorinostat -0.101 | citarinostat 0.227 | silmitasertib 0.062 | [5] -0.041 | [6] 0.041 | entospletinib -0.011

MAGEA1 (UniProt P43355)
inactive: [3] -0.05 | vorinostat 0.074 | silmitasertib 0.114 | [5] 0.046

LSM11 (UniProt P83369)
inactive: vorinostat -0.053

Pulled one by one from above (two):
LRRC8E (UniProt Q6NSJ5)
inactive: [1] -0.001 | [3] -0.227 | [4] 0.067 | entinostat -0.391 | vorinostat 0.054 | silmitasertib -0.078 | [5] -0.044

MAP1A isoform 2 (UniProt P78559)
inactive: [1] 0.023 | [2] -0.017 | [3] -0.006 | [4] 0.074 | entinostat -0.036 | vorinostat -0.018 | citarinostat -0.02 | silmitasertib 0.017 | [5] 0.033 | [6] -0.05 | entospletinib 0.052

(cont.)

MAP3K3 isoform 2 (UniProt Q99759)
inactive: [1] 0.041 | [3] -0.4 | [4] -0.159 | entinostat 0.007 | vorinostat -0.02 | citarinostat -0.021 | silmitasertib -0.106 | [5] 0.171 | [6] 0.076 | entospletinib 0.029

MANSC1 (UniProt Q9H8J5)
inactive: [2] 0.152

MAP7D3 (UniProt Q8IWC1)
inactive: [1] -0.144 | entinostat -0.154 | vorinostat 0.05 | citarinostat 0.019 | [5] 0.211 | [6] -0.033 | entospletinib 0.015

LSR isoform 3 (UniProt Q86X29)
inactive: [1] -0.531 | [3] -0.327 | entinostat -0.134 | silmitasertib 0.062

LYST (UniProt Q99698)
inactive: [3] 0.221 | [4] -0.126 | vorinostat -0.288 | silmitasertib 0.245 | [5] -0.239

LRRC8B (UniProt Q6P9F7)
inactive: [1] 0.014 | [3] 0.171 | entinostat -0.35 | silmitasertib -0.08 | [5] 0.075

MAN2B1 (UniProt M0QYZ1)
inactive: [2] -0.04 | [5] -0.356

MAP4K3 (UniProt Q8IVH8)
inactive: [1] 0.356 | [4] -0.38 | entinostat 0.161 | citarinostat -0.031 | [6] -0.128 | entospletinib 0.075

LSG1 (UniProt Q9H089)
inactive: [2] 0.056 | [3] 0.064 | [4] 0.006 | citarinostat -0.105 | silmitasertib 0.129 | [5] 0.308 | [6] -0.094 | entospletinib 0.105

MAPK11 (UniProt Q15759)
inactive: vorinostat 0.033

MAFG (UniProt O15525)
inactive: [2] 0.003 | [4] -0.009 | vorinostat -0.136 | [5] -0.13

MAGEA8 (UniProt P43361)
inactive: [2] -0.135 | [4] 0.034 | vorinostat -0.063 | citarinostat 0.012 | [6] -0.008

MARCHF3 (UniProt Q86UD3)
inactive: [1] 0.169 | entinostat -0.038 | citarinostat -0.133 | [5] -0.014 | [6] -0.26

LRRFIP1 isoform 4 (UniProt Q32MZ4)
inactive: [2] 0.04 | vorinostat -0.062 | [5] -0.019

MAGEB10 (UniProt Q96LZ2)
inactive: [2] -0.047 | [4] -0.042 | citarinostat 0.107 | [6] -0.004 | entospletinib -0.005

LSM5 (UniProt Q9Y4Y9)
inactive: [1] 0.14 | [3] -0.067 | entinostat 0.004 | vorinostat -0.187 | citarinostat 0.028 | silmitasertib -0.035 | [5] -0.027 | [6] 0.049 | entospletinib -0.025
